Reference: article PMC4935975, “A neomorphic cancer cell-specific role of MAGE-A4 in trans-lesion synthesis” (Nature Communications, 2016)
These are yes or no findings as the source states them, for the method shown. Binding seen in cells or lysates may run through a third protein. Some entries that bind do so weakly or less than the wild type. For part of these data: Where a sequence is shown, tags or fusion partners need not be part of it.

By UniProt entry, the sequences of proteins in these tests, tags left out. Where a name states a change or a piece, a line headed by the entry shows the natural chain unless it says otherwise. Chains listed by the source or under a name are the forms on record and can include a tag or linker. Residues count along the entry.
UniProt Q9NS91: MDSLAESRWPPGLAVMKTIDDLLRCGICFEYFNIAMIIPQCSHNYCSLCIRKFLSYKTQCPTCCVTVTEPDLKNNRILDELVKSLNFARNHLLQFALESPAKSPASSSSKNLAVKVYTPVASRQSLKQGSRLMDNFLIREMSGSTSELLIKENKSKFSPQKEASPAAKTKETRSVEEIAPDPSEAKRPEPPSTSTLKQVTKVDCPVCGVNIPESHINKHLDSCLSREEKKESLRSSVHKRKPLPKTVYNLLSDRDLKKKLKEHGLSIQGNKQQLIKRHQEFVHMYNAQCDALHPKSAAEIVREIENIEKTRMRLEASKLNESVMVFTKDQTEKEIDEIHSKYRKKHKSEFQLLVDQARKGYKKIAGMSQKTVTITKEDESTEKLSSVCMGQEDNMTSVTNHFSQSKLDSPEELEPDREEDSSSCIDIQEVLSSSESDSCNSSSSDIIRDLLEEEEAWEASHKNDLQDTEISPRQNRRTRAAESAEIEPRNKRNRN
GST–RAD18 267-402: residues 267-402 of Q9NS91
HA–RAD18 Δ340–395 (ΔR6BD) (Q9NS91, form named): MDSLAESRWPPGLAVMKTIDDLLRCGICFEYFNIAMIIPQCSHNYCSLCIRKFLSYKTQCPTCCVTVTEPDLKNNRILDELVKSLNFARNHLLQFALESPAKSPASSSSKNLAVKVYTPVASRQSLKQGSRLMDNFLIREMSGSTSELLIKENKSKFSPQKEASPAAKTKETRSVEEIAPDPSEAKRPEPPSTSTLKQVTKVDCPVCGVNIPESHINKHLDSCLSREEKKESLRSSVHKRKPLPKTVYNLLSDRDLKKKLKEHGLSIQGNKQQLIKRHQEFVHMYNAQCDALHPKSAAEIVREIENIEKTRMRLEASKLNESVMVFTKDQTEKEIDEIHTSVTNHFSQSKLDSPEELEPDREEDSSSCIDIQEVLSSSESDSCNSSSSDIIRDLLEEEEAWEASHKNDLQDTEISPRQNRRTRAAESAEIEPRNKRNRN
UniProt P43358: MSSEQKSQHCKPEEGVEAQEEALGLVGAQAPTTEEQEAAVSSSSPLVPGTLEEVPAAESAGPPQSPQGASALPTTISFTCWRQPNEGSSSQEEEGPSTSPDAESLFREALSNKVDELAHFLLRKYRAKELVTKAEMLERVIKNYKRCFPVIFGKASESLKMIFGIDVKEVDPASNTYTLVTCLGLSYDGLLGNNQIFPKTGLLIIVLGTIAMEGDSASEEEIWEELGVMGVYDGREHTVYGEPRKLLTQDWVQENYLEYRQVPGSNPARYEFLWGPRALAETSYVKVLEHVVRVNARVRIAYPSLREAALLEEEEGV

Key:
[1] = target: GST–RAD18 267-402 (UniProt Q9NS91); test: pull-down; recombinant GST fusion (100 ng) incubated with 100 μg cleared cell lysate in 1 ml CSK, 2 h at 4 °C; glutathione sepharose beads, 2 h more at 4 °C; washed three times in CSK+1% BSA; immunoblot; only the target purified
[2] = target: HA–RAD18 wild type (UniProt Q9NS91); test: co-IP; H1299 cell extracts in CSK buffer; magnetic beads with covalently conjugated antibodies against the epitope tag (HA or MYC), overnight at 4 °C, five washes in CSK; immunoblot; in Fig. 1d cells untreated or treated with CPT (2 μM) or UVC (20 J m^-2)
[3] = target: HA–RAD18 Δ340–395 (ΔR6BD) (UniProt Q9NS91); test: as above
[4] = target: MYC–RAD18 (UniProt Q9NS91); test: as above
[5] = target: T1, MYC–TRIM69 (UniProt Q86WT6); test: as above
T1 sequence: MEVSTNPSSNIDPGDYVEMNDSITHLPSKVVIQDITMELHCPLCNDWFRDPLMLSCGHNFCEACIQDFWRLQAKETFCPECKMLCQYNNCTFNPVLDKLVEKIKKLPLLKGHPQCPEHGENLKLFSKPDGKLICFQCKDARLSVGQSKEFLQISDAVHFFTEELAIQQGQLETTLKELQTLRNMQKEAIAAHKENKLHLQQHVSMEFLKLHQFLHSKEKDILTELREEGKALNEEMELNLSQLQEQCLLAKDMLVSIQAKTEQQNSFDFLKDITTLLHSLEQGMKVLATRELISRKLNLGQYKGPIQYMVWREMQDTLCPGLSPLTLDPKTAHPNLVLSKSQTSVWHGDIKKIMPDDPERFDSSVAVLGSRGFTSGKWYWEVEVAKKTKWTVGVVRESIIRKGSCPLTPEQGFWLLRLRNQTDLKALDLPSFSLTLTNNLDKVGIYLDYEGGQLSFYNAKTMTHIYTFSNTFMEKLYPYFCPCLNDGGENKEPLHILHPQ

[6] = target: GST–MAGE-A4 (human (open reading frame amplified from H1299 genomic DNA)) (UniProt P43358); test: pull-down; recombinant GST fusion (100 ng) incubated with 100 μg cleared cell lysate in 1 ml CSK, 2 h at 4 °C; glutathione sepharose beads, 2 h more at 4 °C; washed three times in CSK+1% BSA; immunoblot; only the target purified

Row | Substance | binding [1] | binding [2] | binding [3] | binding [4] | binding [5] | binding [6]
1 | melanoma antigen-A4 (MAGE-A4) (from UniProt P43358 1-317) | binds | binds | no binding | binds | binds | –
2 | RAD18 (from UniProt Q9NS91 1-495) (enzyme) | – | – | – | – | – | binds
